In this assay the target is Flag-KLHL29-ΔBTB (UniProt Q96CT2). In words: co-IP; HEK293T cells transfected with tagged plasmids; whole-cell lysates immunoprecipitated with anti-tag antibody (anti-Flag or anti-Myc), western blotting. (In general: Immunoblotting shows a protein as a band on a membrane.)

Chains of the proteins cited; added tags and fusions are not shown. Lines headed by an entry give the natural chain unless they say otherwise; changes in a name come on top.
UniProt Q96CT2: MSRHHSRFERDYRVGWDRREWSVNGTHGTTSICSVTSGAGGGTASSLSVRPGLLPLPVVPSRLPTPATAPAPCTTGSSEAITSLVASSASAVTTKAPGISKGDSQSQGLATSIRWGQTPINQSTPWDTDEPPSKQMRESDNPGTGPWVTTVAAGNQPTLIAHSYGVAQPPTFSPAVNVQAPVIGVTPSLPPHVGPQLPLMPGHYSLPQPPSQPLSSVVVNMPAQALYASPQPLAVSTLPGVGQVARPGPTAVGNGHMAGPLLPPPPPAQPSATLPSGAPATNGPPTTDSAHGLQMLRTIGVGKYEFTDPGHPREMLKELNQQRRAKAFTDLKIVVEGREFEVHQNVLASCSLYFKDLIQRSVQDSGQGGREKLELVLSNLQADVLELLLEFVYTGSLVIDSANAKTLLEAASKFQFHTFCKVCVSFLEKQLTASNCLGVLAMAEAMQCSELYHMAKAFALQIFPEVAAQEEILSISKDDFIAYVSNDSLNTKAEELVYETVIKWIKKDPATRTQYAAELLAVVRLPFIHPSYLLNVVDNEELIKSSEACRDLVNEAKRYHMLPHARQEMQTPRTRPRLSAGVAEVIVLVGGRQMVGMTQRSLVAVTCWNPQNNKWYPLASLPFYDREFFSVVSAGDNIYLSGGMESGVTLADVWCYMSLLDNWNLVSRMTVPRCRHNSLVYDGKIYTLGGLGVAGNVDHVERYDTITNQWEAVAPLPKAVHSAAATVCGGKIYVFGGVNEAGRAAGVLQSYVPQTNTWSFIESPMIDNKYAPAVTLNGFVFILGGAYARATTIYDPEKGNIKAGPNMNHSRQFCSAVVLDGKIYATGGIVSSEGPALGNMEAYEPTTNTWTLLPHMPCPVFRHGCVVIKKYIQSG
UniProt O00571: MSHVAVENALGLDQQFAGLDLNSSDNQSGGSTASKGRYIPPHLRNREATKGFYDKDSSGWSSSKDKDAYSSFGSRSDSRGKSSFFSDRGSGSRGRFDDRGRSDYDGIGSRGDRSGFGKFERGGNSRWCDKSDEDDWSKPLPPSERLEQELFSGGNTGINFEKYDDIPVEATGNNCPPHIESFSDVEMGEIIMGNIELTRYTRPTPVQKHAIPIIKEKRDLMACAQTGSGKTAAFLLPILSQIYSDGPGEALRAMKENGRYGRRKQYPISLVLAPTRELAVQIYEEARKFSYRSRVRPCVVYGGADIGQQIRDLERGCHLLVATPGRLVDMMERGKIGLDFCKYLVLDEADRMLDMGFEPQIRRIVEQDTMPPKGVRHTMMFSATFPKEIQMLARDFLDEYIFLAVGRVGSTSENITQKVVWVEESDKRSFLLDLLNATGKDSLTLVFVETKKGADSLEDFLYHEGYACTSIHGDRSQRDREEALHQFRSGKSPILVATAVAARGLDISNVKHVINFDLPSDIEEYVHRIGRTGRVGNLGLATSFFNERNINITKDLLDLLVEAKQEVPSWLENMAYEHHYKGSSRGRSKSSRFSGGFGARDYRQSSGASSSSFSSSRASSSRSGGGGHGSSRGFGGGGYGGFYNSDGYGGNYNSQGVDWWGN

Results are given in words; binding and its absence hold for the method and conditions named. Binding seen in cells or lysates may run through a third protein. A result given as binding can be weak or reduced; the word gives no strength.

For the substance Myc-DDX3X (from UniProt O00571 1-662), the binding entry is recorded as “binds”.

The values above are taken from PMC10656286.
